According to article PMC10226619:
These are yes or no findings as the source states them, for the method shown. Binding seen in cells or lysates may run through a third protein. These calls come from enrichment with a bait or labelling near it, and not all partners need be listed. For part of these data: Where a sequence is shown, tags or fusion partners need not be part of it.

Chains of the proteins cited; added tags and fusions are not shown.
UniProt P35177: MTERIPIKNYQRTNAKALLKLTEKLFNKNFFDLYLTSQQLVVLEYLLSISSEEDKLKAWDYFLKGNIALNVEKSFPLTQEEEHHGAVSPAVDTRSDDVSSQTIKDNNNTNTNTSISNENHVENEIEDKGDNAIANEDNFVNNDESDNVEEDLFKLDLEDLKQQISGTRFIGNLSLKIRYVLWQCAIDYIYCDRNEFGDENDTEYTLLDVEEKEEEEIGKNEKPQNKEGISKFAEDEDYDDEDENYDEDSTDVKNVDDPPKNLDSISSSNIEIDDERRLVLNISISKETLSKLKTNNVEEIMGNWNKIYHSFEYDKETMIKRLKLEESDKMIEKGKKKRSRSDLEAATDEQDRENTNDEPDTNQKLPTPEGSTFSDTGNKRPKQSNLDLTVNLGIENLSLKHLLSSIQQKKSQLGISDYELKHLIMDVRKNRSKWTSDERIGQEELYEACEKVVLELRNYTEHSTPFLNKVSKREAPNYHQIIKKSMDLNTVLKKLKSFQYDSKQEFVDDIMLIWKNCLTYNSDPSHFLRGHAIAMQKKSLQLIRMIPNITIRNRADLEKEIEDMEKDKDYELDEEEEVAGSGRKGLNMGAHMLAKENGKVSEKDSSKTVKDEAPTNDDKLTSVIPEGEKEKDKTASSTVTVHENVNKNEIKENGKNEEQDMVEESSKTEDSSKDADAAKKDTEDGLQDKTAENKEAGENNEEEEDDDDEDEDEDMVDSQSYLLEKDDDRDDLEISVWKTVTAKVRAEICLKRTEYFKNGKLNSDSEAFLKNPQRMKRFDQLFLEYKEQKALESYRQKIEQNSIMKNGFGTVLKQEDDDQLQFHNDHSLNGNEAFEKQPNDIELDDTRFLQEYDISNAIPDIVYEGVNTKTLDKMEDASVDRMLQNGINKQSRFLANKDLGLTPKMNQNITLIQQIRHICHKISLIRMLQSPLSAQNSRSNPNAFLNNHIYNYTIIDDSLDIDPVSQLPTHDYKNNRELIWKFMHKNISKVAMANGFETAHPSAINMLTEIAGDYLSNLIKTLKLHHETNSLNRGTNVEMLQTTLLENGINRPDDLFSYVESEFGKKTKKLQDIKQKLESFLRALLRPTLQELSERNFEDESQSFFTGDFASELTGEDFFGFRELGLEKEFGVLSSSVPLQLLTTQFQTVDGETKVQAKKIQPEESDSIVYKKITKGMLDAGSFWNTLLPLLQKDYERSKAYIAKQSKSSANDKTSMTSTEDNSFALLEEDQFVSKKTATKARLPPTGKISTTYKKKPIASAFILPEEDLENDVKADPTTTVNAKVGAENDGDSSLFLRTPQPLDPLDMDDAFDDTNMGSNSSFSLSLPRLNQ
UniProt Q03330: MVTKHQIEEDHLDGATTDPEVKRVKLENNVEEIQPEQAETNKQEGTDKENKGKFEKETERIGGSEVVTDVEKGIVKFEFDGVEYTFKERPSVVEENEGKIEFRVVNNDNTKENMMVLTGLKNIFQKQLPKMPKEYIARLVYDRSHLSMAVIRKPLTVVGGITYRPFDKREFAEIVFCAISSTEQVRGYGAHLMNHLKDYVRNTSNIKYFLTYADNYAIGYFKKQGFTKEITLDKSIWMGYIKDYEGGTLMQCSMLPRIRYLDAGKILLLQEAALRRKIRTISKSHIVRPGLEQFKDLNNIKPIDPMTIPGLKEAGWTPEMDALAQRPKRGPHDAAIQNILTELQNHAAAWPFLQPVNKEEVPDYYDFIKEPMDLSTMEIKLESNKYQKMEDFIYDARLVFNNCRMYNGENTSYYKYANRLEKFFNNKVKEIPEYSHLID

What was measured:
[1] = biological target: Spt7 with a C-terminal TAP tag (S. cerevisiae) (UniProt P35177); test: affinity purification with mass spectrometry; SAGA purified by Spt7-TAP from yeast with WT Ada2 (YCW14): IgG Sepharose, TEV cleavage, HiTrap Q; LC-MS/MS, total spectrum counts normalized to Spt7
[2] = biological target: T1, Ada2 with N terminal 3× FLAG tag (wild type) (S. cerevisiae) (UniProt Q02336); test: affinity purification with mass spectrometry; FLAG-Ada2 WT or ΔSWIRM from 2–4 mg yeast whole cell extract on ANTI-FLAG M2 affinity gel overnight at 4 °C, TBS washes; 3× FLAG peptide elution (TIMSTOF, 2 replicates) or on-resin trypsin digestion (TMT, 1 replicate); abundances normalized to Ada2
T1 sequence: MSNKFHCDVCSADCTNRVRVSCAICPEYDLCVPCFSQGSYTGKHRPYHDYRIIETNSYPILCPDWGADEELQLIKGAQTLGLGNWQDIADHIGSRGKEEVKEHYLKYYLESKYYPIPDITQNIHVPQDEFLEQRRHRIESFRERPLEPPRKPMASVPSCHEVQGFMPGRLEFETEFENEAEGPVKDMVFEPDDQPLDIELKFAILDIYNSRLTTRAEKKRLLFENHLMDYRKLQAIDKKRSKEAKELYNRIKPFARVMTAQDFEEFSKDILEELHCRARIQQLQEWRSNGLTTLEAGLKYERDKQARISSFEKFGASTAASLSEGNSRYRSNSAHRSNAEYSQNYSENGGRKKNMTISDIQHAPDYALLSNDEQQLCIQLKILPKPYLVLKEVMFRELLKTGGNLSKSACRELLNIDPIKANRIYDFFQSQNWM

[3] = biological target: T2, Ada2 ΔSWIRM (Δ residues 353–434) with 3xFlag on the N-terminus (S. cerevisiae) (UniProt Q02336); test: as above
T2 sequence: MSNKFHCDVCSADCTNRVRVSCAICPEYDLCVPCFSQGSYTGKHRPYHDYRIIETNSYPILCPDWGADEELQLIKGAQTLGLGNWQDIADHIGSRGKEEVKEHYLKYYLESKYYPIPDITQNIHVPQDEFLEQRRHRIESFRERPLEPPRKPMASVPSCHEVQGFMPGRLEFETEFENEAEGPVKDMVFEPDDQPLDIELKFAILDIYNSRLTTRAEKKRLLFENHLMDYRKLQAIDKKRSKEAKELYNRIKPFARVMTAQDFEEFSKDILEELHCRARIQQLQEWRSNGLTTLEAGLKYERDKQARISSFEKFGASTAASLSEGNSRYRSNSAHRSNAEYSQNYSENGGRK

Measured: binding

Gcn5 (endogenous) (from UniProt Q03330 1-439) (enzyme)
binds: all assays above
